# Results reported in the supplement of paper PMC12889115.
# This is one part of the list. These are raw signals, not scaled to a control.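 First-pass screen: polymyxin B was added at a level that permeabilizes the Salmonella outer membrane while sparing the inner membrane. DMSO wells, with and without polymyxin B, defined maximum growth. Because plates differed from one another, each plate's data were ranked separately and the compounds with the lowest OD600 were carried forward as hits.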
# Tested on: Salmonella enterica serovar Typhimurium SL1344
# Experiment: bacterial growth OD600 after 18 h with compound and polymyxin B; higher = more bacterial growth (less inhibition)
# Conditions: 50 µM, Mueller-Hinton broth
Structure (SMILES),bacterial growth OD600 (polymyxin B 0.75 µg/mL),bacterial growth OD600 (polymyxin B 1 µg/mL)
COC(=O)CC1C(=O)NCCN1C(=O)c1ccc2nc(C3CCCCC3)oc2c1 (configuration not stated),0.795,
COCCCNc1nc2nonc2nc1N1CCCCC1c1cccnc1 (configuration not stated),,0.805
Cc1ccc(C(=O)N2CCCC(CCC(=O)Nc3ccc(F)cc3C)C2)cn1 (configuration not stated),,0.629
COc1ccc(CN2CCN(Cc3ccc(C)o3)C(CCO)C2)c(OC)c1C (configuration not stated),,0.809
C=CCS(=O)(=O)N1CCC2(CCCN(Cc3cccc(F)c3F)C2=O)C1 (configuration not stated),,0.968
COC(=O)CN(C)c1ccc(-c2nc(-c3ccccc3F)no2)cn1,,0.989
COc1ccc(CN2CCCC(CO)(Cc3ccccc3F)C2)c(F)c1 (configuration not stated),,0.761
COc1ccc(OC)c(CN2CCCC(C(=O)c3cc(F)ccc3OC)C2)c1 (configuration not stated),0.751,
Cc1nccn1-c1ccc(NC(=O)C2CCCN2CC2CC2)cc1 (configuration not stated),0.838,
CN(CCN1CCOCC1)C(=O)c1cc(COc2cccc(F)c2)[nH]n1,,1.1
CC(=O)NCCNC(=O)Cc1c2c(n(Cc3ccccc3F)c1C)CCCC2=O,0.205,
CC(=O)c1cccc(OCc2cc(C(=O)N(C)Cc3ccc(F)cc3)n[nH]2)c1,,0.904
CC(=O)NCCC1CCCCN1c1nc2nonc2nc1N1CCSCC1 (configuration not stated),0.816,
COC(=O)c1ccc(CN2CCC3(CC2)c2ccccc2[C@@H](NC(=O)c2ccco2)[C@@H]3OC)cc1,0.809,
CN(Cc1ccccc1)c1ncc2c(n1)CC(C)(C)CC2NC1CCOCC1 (configuration not stated),,0.46
CC(=O)Nc1ccc(CN2CC[C@@H](N(C)CCc3ccccn3)[C@H](O)C2)cc1,0.803,

Structure (SMILES),bacterial growth OD600 (polymyxin B 0.75 µg/mL),bacterial growth OD600 (polymyxin B 1 µg/mL)
COc1ccc2c(c1)SC(c1ccc(OC)c(C)c1)CCN2Cc1cnn(C)c1C (configuration not stated),0.001,
Fc1ccc(-n2cccn2)c(CNCc2cccnc2Oc2ccccc2)c1,,1.03
O=C1CCC(CCC(=O)N2CCN(C(=O)c3ccco3)CC2)(Cc2ccc(-c3ccccc3)cc2)N1 (configuration not stated),0.894,
Cc1nn(C)c(C)c1CN(Cc1nc(-c2cccc(Cl)c2)oc1C)C1CC1,0.005,
CCN1CCN(c2ccc(-c3nc(-c4ccccc4C)no3)cn2)CC1,0.002,
Cc1ccc(N2CCC(C3CCN(CC(C)C)CC3)C2)nn1 (configuration not stated),0.84,
COc1ccccc1C1CCCN1C(=O)CSc1ccc2nnc(-c3cccnc3)n2n1 (configuration not stated),0.805,
O=C(c1cc(COc2ccc3ncccc3c2)on1)N1CCC(c2ccncc2)CC1,0.755,
COc1ccc2ccc(OCc3nc(C(=O)N4CCCO4)co3)cc2c1,,0.883
O=C(CCc1nnc(-c2ccc3c(c2)OCO3)o1)N1CCN(CC2CC2)CC1,,1.12
Cc1ccc(Oc2ncccc2CNCc2cnc(C)n2C)c(F)c1F,,0.86
O=C(c1cn(CC2CCCO2)nn1)N1CCC(Cc2ccccc2F)CC1 (configuration not stated),,0.815
COc1ccccc1CCC(=O)Nc1cnn(CC(=O)NCCC(c2ccccc2)c2ccccc2)c1,0.539,
O=C(c1ccc(OC2CCN(C(=O)C3CC3)CC2)cc1)N1CCN(CC2CC2)CC1,,0.923
O=C(c1cn(CCC2CCCCC2)nn1)N1CCCC1c1ccccn1 (configuration not stated),,0.765
COC1CCCN(C(=O)c2cc(Cl)ccc2OC2CCN(C3CCCC3)CC2)C1 (configuration not stated),0.741,

# Another view of some results above.
Structure (SMILES)	bacterial growth OD600 (polymyxin B 0.75 µg/mL)	bacterial growth OD600 (polymyxin B 1 µg/mL)
COc1ccc2c(c1)SC(c1ccc(OC)c(C)c1)CCN2Cc1cnn(C)c1C (configuration not stated)	0.001	
COc1ccccc1C1CCCN1C(=O)CSc1ccc2nnc(-c3cccnc3)n2n1 (configuration not stated)	0.805	
